# Experimental data as given in publication PMC7979924.
# By UniProt entry, the sequences of proteins in these tests, tags left out.
# UniProt P67809: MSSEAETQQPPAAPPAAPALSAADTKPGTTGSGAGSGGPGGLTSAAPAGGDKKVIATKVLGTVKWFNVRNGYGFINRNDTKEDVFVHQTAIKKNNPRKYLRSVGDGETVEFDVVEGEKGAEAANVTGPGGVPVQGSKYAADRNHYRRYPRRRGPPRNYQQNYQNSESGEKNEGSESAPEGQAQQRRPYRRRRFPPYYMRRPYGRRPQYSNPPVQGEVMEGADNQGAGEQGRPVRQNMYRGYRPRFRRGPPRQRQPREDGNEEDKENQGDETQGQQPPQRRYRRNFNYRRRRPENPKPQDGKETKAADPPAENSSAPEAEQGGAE
# No constants are given. Whether binding was seen depends on the method and setting. Some results given as binding are weak or reduced against the parent protein; the word gives no strength. Tags and fused reporters may be left off the sequences shown.
# T1: Lin28 full length fused to RFP-MBD (bait) (human) (UniProt Q9H9Z2)
# T1 sequence: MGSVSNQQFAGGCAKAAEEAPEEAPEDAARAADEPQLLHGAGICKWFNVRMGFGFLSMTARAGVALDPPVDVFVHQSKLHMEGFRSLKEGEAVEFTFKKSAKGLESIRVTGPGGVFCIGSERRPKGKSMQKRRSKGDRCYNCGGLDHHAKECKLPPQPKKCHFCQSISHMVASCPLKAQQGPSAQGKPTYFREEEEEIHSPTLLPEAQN
# How the values were obtained:
# [1] = biological target: T1, Lin28 full length fused to RFP-MBD (bait) (human); test: microtubule bench assay (a GFP-labelled prey is brought onto microtubules by a bait fused to RFP-MBD); HeLa cells co-expressing bait (RFP-MBD fusion, on microtubules) and GFP-labelled prey for 24 h; fixed with methanol then PFA; Spearman's coefficient or prey versus bait intensity on microtubules
# [2] = biological target: YB-1 full length fused to RFP-MBD (bait) (human) (UniProt P67809); test: as above
binding [1],binding [2],Binder
binds,binds,"GFP-labeled full length CSDE1 (prey) (protein, UniProt O75534-3 1-813) MENVFTVSSDPHPSPAAPPSLSLPLSSSSTSSGTKKQKRTPTYQRSMSFDPNLLHNNGHNGYPNGTSAALRETGVIEKLLTSYGFIQCSERQARLFFHCSQYNGNLQDLKVGDDVEFEVSSDRRTGKPIAVKLVKIKQEILPEERMNGQEVFYLTYTPEDVEGNVQLETGDKINFVIDNNKHTGAVSARNIMLLKKKQARCQGVVCAMKEAFGFIERGDVVKEIFFHYSEFKGDLETLQPGDDVEFTIKDRNGKEVATDVRLLPQGTVIFEDISIEHFEGTVTKVIPKVPSKNQNDPLPGRIKVDFVIPKELPFGDKDTKSKVTLLEGDHVRFNISTDRRDKLERATNIEVLSNTFQFTNEAREMGVIAAMRDGFGFIKCVDRDVRMFFHFSEILDGNQLHIADEVEFTVVPDMLSAQRNHAIRIKKLPKGTVSFHSHSDHRFLGTVEKEATFSNPKTTSPNKGKEKEAEDGIIAYDDCGVKLTIAFQAKDVEGSTSPQIGDKVEFSISDKQRPGQQVATCVRLLGRNSNSKRLLGYVATLKDNFGFIETANHDKEIFFHYSEFSGDVDSLELGDMVEYSLSKGKGNKVSAEKVNKTHSVNGITEEADPTIYSGKVIRPLRSVDPTQTEYQGMIEIVEEGDMKGEVYPFGIVGMANKGDCLQKGESVKFQLCVLGQNAQTMAYNITPLRRATVECVKDQFGFINYEVGDSKKLFFHVKEVQDGIELQAGDEVEFSVILNQRTGKCSACNVWRVCEGPKAVAAPRPDRLVNRLKNITLDDASAPRLMVLRQPRGPDNSMGFGAERKIRQAGVID"
binds,–,"GFP-labeled full length Lin28 (wild type) (protein, UniProt Q9H9Z2 1-209) MGSVSNQQFAGGCAKAAEEAPEEAPEDAARAADEPQLLHGAGICKWFNVRMGFGFLSMTARAGVALDPPVDVFVHQSKLHMEGFRSLKEGEAVEFTFKKSAKGLESIRVTGPGGVFCIGSERRPKGKSMQKRRSKGDRCYNCGGLDHHAKECKLPPQPKKCHFCQSISHMVASCPLKAQQGPSAQGKPTYFREEEEEIHSPTLLPEAQN"
